# Results: the supplement of paper PMC5770031
# “And” between values parts separate entries of the source, which are not always exact repeats. Equal entries are not always repeated. This is one part of the list. Repeats in this data set agree poorly, so a single value says little.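 Flies heterozygous for the ATM8 allele over a balancer chromosome carrying normal ATM were mated with each other on treated food. Parents laid eggs for 5–6 days and the young then developed for about 12 days, so both parents and larvae ate the compound. The read-out is the share of all emerged adults that carry two ATM8 copies, compared with 2% DMSO control vials. The paper called compounds neutral at 10–20% such offspring, harmful below 10%, and helpful above 20%.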
# Test system: Drosophila melanogaster ATM8 (temperature-sensitive ATM allele)
# Test: fraction of eclosed F1 progeny that are homozygous ATM8 (rescue of developmental lethality); higher = more rescue of ATM8 developmental lethality; extreme values may be limits of the assay
# Conditions: compound concentration applied to food 0.2 mM; 21 °C
row,SMILES,fraction of eclosed F1 progeny that are homozygous ATM8
1,CC(Cl)(Cl)C(=O)O,0.0571
2,CC(C)CC(N(C)C)C1(c2ccc(Cl)cc2)CCC1 (stereo not given),0.257
3,N[C@@H](Cc1cc(I)c(Oc2ccc(O)c(I)c2)c(I)c1)C(=O)O [LIOTHYRONINE (L- isomer) SODIUM],0.231
4,N[C@@H](Cc1cc(I)c(Oc2ccc(O)c(I)c2)c(I)c1)C(=O)O,0.111
5,NC[C@@H]1O[C@@H](O[C@H]2[C@H](O)[C@@H](O[C@H]3O[C@H](CO)[C@@H](O)[C@H](N)[C@H]3O)[C@H](N)C[C@@H]2N)[C@@H](O)[C@H](O)[C@H]1O,0
6,CC1CC(OC(=O)c2ccccc2O)CC(C)(C)C1 (stereo not given),0.105
7,C[C@H](CCC(=O)O)[C@H]1CC[C@H]2[C@@H]3[C@@H](O)C[C@@H]4C[C@H](O)CC[C@]4(C)[C@H]3CC[C@]12C,0.0952
8,COC(=O)c1cc(OC)c(=O)c2c(OC)c(OC)ccc2c1,0.154
9,C[C@]12CC[C@@H]3c4ccc(OC(=O)c5ccccc5)cc4CC[C@H]3[C@@H]1CC[C@@H]2O,0.235
10,O=C([O-])c1ccccc1-c1c2cc(Br)c(=O)cc-2oc2[c]([Hg+])c([O-])c(Br)cc12.[Na+].[Na+].[OH-],0.176
11,CN1CCN(C(c2ccccc2)c2ccccc2)CC1,0.0312
12,COC(=O)C1=CO[C@@H](C)[C@H]2CN3CC[C@]4(C(=O)Nc5ccccc54)[C@@H]3C[C@H]12,0.0968
13,N#C/C(=C\c1cccc(O)c1)C(=O)O [alpha-CYANO-3-HYDROXYCINNAMIC ACID],0.1
14,OCCN(CCO)c1nc(N2CCCCC2)c2nc(N(CCO)CCO)nc(N3CCCCC3)c2n1,0.146
15,CC(=O)O[C@@H]1C[C@@]2(C)[C@H](c3ccoc3)C[C@H]3O[C@]32[C@]2(C)C(=O)C(O)=C3C(C)(C)C(=O)C=C[C@]3(C)[C@@H]12,0.117
16,O=C(O)c1ccccc1C(=O)Nc1ccc(S(=O)(=O)Nc2nccs2)cc1,0.143
17,C[N+](C)(C)CC(=O)O,0.093
18,C#C[C@]1(O)CC[C@H]2[C@@H]3CCC4=CC(=O)CC[C@]4(C)[C@H]3CC[C@@]21C,0.0588
19,CC(C)[N+](C)(CCC(C(N)=O)(c1ccccc1)c1ccccc1)C(C)C,0.143
20,COc1ccc(C(=O)c2ccccc2)c(O)c1O,0.0926
21,Cc1c(-c2cnccn2)ssc1=S,0.125
22,C(=C\c1ccccc1)/CN1CCN(C(c2ccccc2)c2ccccc2)CC1,0.036
23,CCN(CC)CCNC(C(=O)OCCC(C)C)c1ccccc1 (stereo not given),0.208
24,C[C@@H]1C[C@H]2[C@@H]3CCC4=CC(=O)C=C[C@]4(C)[C@@]3(F)[C@@H](O)C[C@]2(C)[C@@]1(O)C(=O)COP(=O)(O)O,0.0233
25,C=CC1=C(C(=O)O)N2C(=O)[C@@H](NC(=O)/C(=N\O)c3csc(N)n3)[C@H]2SC1,0.241

row,SMILES,fraction of eclosed F1 progeny that are homozygous ATM8
1,C=C1CC[C@@H]2[C@](C)(CO)[C@H](O)CC[C@@]2(C)[C@@H]1C/C=C1/C(=O)OC[C@H]1O,0.171
2,Cc1cn([C@H]2C=C[C@@H](CO)O2)c(=O)[nH]c1=O,0.0526
3,Oc1ccc([C@H]2Oc3cc(O)cc(O)c3C[C@H]2O)cc1,0.196
4,O=C(O[C@@H]1Cc2c(O)cc(O)cc2O[C@@H]1c1cc(O)c(=O)c2c(O)c(O)cc([C@H]3Oc4cc(O)cc(O)c4C[C@H]3OC(=O)c3cc(O)c(O)c(O)c3)c2c1)c1cc(O)c(O)c(O)c1,0.0857
5,COc1cccc2c1C(=O)c1c(O)c3c(c(O)c1C2=O)C[C@@](O)(C(C)=O)C[C@@H]3O[C@H]1C[C@H](N)[C@H](O)[C@H](C)O1,0.0769
6,O=c1oc2c(O)c(O)cc3c(=O)oc4c(O)c(O)cc1c4c23,0.304
7,COc1ccc(-c2coc3cc(OC(C)=O)cc(OC(C)=O)c3c2=O)cc1,0.033
8,NC(=O)NCCC[C@H](N)C(=O)O,0.246
9,C[C@]12CC[C@H]3[C@@H](CC[C@]4(O)C[C@@H](O)CC[C@]34C=O)[C@@]1(O)CC[C@@H]2C1=CC(=O)OC1,0.241
10,CC(=O)CC(c1ccccc1)c1c(O)c2ccccc2oc1=O (stereo not given),0.179
11,NS(=O)(=O)c1cc2c(cc1Cl)NC(C1CC3C=CC1C3)NS2(=O)=O (stereo not given),0.069
12,CCN(CC)CC(=O)Nc1c(C)cccc1C,0.178
13,c1ccc2c(CC3=NCCN3)cccc2c1,0.0938
14,COc1cc(OC)c2c(c1Cl)O[C@@]1(C(=O)CC(=O)C[C@H]1C)C2=O,0.393
15,NC(N)=NOCC[C@H](N)C(=O)O,0.0638
16,CN1C(=O)CC[C@H]1c1cccnc1,0
17,CC[C@@H]1C(=O)OC[C@@H]1Cc1cncn1C,0.133
18,CS(=O)(=O)OCCCCOS(C)(=O)=O,0.0833
19,Cc1c(NC(=O)c2cccnc2)c(=O)n(-c2ccccc2)n1C,0.171
20,O=C(/C=C/c1ccc(O)cc1)c1ccc(O)cc1O,0.0833
21,COc1ccc(-c2coc3c(O)c(O)c(OC)cc3c2=O)cc1,0.178
22,OCc1c[nH]c2ccccc12,0.151
23,CCC1(C)OC(=O)N(C)C1=O (stereo not given),0
24,O=C(OOC(=O)c1ccccc1)c1ccccc1,0.0833
25,N[C@@H](Cc1c[nH]c2ccccc12)C(=O)O,0.103 and 0.1

row,SMILES,fraction of eclosed F1 progeny that are homozygous ATM8
1,CC(O)Cn1cnc2c1c(=O)n(C)c(=O)n2C (stereo not given),0.0811
2,NS(=O)(=O)c1cc2c(cc1C(F)(F)F)NCNS2(=O)=O,0.238
3,NC(=O)CCCCC1CCSS1 (stereo not given),0.192
4,CC(C)(CO)[C@@H](O)C(=O)NCCC(=O)NCCSSCCNC(=O)CCNC(=O)[C@H](O)C(C)(C)CO,0.075
5,CC(=O)Oc1ccc(Cl)c2cccnc12,0.208
6,CN1CCN(CC/C=C2/c3ccccc3Sc3ccc(S(=O)(=O)N(C)C)cc32)CC1,0.0789
7,O=P1(NCCCl)OCCCN1CCCl (stereo not given),0
8,N#CN=C(N)N,0.196
9,CN1CCC(=C2c3ccccc3C=Cc3ccccc32)CC1,0.175
10,CCCc1cc(C(N)=S)ccn1,0.122
11,CC(=O)S[C@@H]1CC2=CC(=O)CC[C@]2(C)[C@H]2CC[C@@]3(C)[C@@H](CC[C@@]34CCC(=O)O4)[C@H]12,0.265
12,CC(Cc1cccc(C(F)(F)F)c1)NCCOC(=O)c1ccccc1 (stereo not given),0.233
13,C=C(C)[C@@H]1[C@H]2OC(=O)[C@@H]1[C@]1(O)C[C@H]3O[C@]34C(=O)O[C@H]2[C@]14C,0.216
14,CC(=O)[C@H]1CC[C@H]2[C@@H]3CCC4=CC(=O)CC[C@]4(C)[C@H]3C(OC(=O)CCC(=O)O)C[C@]12C (stereo partly drawn) [11alpha-HYDROXYPROGESTERONE HEMISUCCINATE],0.229
15,Oc1ccc(Cl)cc1,0.256
16,CC1=CCC[C@@H]2C1(C)CCC(C)[C@@]2(C)CC/C(C)=C/C[n+]1cn(C)c2c(N)ncnc21 (stereo not given in full),0.0256
17,C=C1CC[C@H](O)C/C1=C/C=C1\CCC[C@]2(C)[C@@H]([C@H](C)CCCC(C)C)CC[C@@H]12,0.118
18,Cc1nccnc1N1CCCCC1,0.193
19,CC(C)c1c(CN(C)C(C)Cc2ccccc2)n(C)n(-c2ccccc2)c1=O (stereo not given),0.0714
20,N#CCCN,0.109
21,NNCCc1ccccc1,0.174
22,CCCCN(CCCC)CCCOC(=O)c1ccc(N)cc1,0.06
23,COC(=O)Nc1nc2cc(C(=O)c3cccs3)ccc2[nH]1,0.129
24,Cc1ccc(C(=O)c2ccc(CC(=O)O)n2C)cc1,0.226
25,O=C(O)CN1C(=O)c2cccc3cccc(c23)C1=O,0.212

row,SMILES,fraction of eclosed F1 progeny that are homozygous ATM8
1,FC(F)(F)C(Cl)Br (stereo not given),0.0488
2,CC(=O)OCC(=O)[C@@]1(O)CC[C@H]2[C@@H]3CCC4=CC(=O)C=C[C@]4(C)[C@@]3(Cl)[C@@H](Cl)C[C@@]21C,0.118
3,O=C(O)CCCCCCCC(=O)O,0.129
4,CC(=O)O[C@@H]1C[C@H]2C(C)(C)C(=O)CC[C@]2(C)[C@H]2CC[C@@]3(C)[C@H](c4ccoc4)OC(=O)[C@H]4O[C@]43[C@@]21C,0.0789
5,CC(=O)OCC(=O)[C@@]1(O)CC[C@H]2[C@@H]3CCC4=CC(=O)CC[C@]4(C)[C@@]3(F)[C@@H](O)C[C@@]21C,0.123
6,CC12CCC3C(CC3(C)C)C(C)(CCC1=O)O2 (stereo not given),0.168
7,C=CC(N)CCC(=O)O (stereo not given),0.0698
8,CCCCCCCCCCCCCCCC(=O)OC/C=C(C)/C=C/C=C(C)/C=C/C1=C(C)CCCC1(C)C,0.0606
9,COS(C)(=O)=O,0.238
10,NS(=O)(=O)c1cc(C2(O)NC(=O)c3ccccc32)ccc1Cl (stereo not given),0
11,CCN[C@H]1CN(CCCOC)S(=O)(=O)c2sc(S(N)(=O)=O)cc21,0
12,CC(=O)OCC(=O)[C@@]1(O)CC[C@H]2[C@@H]3CCC4=CC(=O)CC[C@]4(C)[C@H]3[C@@H](O)C[C@@]21C,0.108
13,CC(C)c1c(C(=O)Nc2ccccc2)c(-c2ccccc2)c(-c2ccc(F)cc2)n1CC[C@@H](O)C[C@@H](O)CC(=O)O,0.0612
14,O=c1[nH]c(=O)n(Cl)c(=O)n1Cl,0.189
15,OC(Cn1cncn1)(Cn1cncn1)c1ccc(F)cc1F,0.0323
16,NCCc1c[nH]cn1,0.265
17,CC(=O)OC1CCC23C(=O)OC45CCC(C6=CC(=O)OC6)C4(C)CCC2C5CCC3(O)C1 (stereo not given),0.27
18,CC(C)CCC[C@@H](C)[C@H]1CC[C@H]2[C@@H]3CC=C4C[C@@H](OC(=O)CCC(=O)O)CC[C@]4(C)[C@H]3CC[C@]12C,0.211
19,CC[N+](C)(C)c1cccc(O)c1,0.179
20,CC(=O)[C@@]1(O)CC[C@H]2[C@@H]3C=C(Cl)C4=CC(=O)[C@@H]5C[C@@H]5[C@]4(C)[C@H]3CC[C@@]21C,0.25
21,Nc1[nH]cnc2ncnc1-2,0.0526
22,COc1c(-c2coc3cc4c(cc3c2=O)CC(O)C(C)(C)O4)ccc2c1C=CC(C)(C)O2 (stereo not given),0.0952
23,C[C@@H](O)CN(CCN(C[C@@H](C)O)C[C@@H](C)O)C[C@@H](C)O,0
24,NC(=O)CN1CCCC1=O,0.146
25,COc1cc(C(=O)OCCCN2CCCN(CCCOC(=O)c3cc(OC)c(OC)c(OC)c3)CC2)cc(OC)c1OC,0.186

# 30 neighbouring entries already listed:
row,SMILES,fraction of eclosed F1 progeny that are homozygous ATM8
10,CC(=O)CC(c1ccccc1)c1c(O)c2ccccc2oc1=O (stereo not given),0.179
11,NS(=O)(=O)c1cc2c(cc1Cl)NC(C1CC3C=CC1C3)NS2(=O)=O (stereo not given),0.069
12,CCN(CC)CC(=O)Nc1c(C)cccc1C,0.178
13,c1ccc2c(CC3=NCCN3)cccc2c1,0.0938
14,COc1cc(OC)c2c(c1Cl)O[C@@]1(C(=O)CC(=O)C[C@H]1C)C2=O,0.393
15,NC(N)=NOCC[C@H](N)C(=O)O,0.0638
16,CN1C(=O)CC[C@H]1c1cccnc1,0
17,CC[C@@H]1C(=O)OC[C@@H]1Cc1cncn1C,0.133
18,CS(=O)(=O)OCCCCOS(C)(=O)=O,0.0833
19,Cc1c(NC(=O)c2cccnc2)c(=O)n(-c2ccccc2)n1C,0.171
20,O=C(/C=C/c1ccc(O)cc1)c1ccc(O)cc1O,0.0833
21,COc1ccc(-c2coc3c(O)c(O)c(OC)cc3c2=O)cc1,0.178
22,OCc1c[nH]c2ccccc12,0.151
23,CCC1(C)OC(=O)N(C)C1=O (stereo not given),0
24,O=C(OOC(=O)c1ccccc1)c1ccccc1,0.0833
25,N[C@@H](Cc1c[nH]c2ccccc12)C(=O)O,0.103 and 0.1
1,CC(O)Cn1cnc2c1c(=O)n(C)c(=O)n2C (stereo not given),0.0811
2,NS(=O)(=O)c1cc2c(cc1C(F)(F)F)NCNS2(=O)=O,0.238
3,NC(=O)CCCCC1CCSS1 (stereo not given),0.192
4,CC(C)(CO)[C@@H](O)C(=O)NCCC(=O)NCCSSCCNC(=O)CCNC(=O)[C@H](O)C(C)(C)CO,0.075
5,CC(=O)Oc1ccc(Cl)c2cccnc12,0.208
6,CN1CCN(CC/C=C2/c3ccccc3Sc3ccc(S(=O)(=O)N(C)C)cc32)CC1,0.0789
7,O=P1(NCCCl)OCCCN1CCCl (stereo not given),0
8,N#CN=C(N)N,0.196
9,CN1CCC(=C2c3ccccc3C=Cc3ccccc32)CC1,0.175
10,CCCc1cc(C(N)=S)ccn1,0.122
11,CC(=O)S[C@@H]1CC2=CC(=O)CC[C@]2(C)[C@H]2CC[C@@]3(C)[C@@H](CC[C@@]34CCC(=O)O4)[C@H]12,0.265
12,CC(Cc1cccc(C(F)(F)F)c1)NCCOC(=O)c1ccccc1 (stereo not given),0.233
13,C=C(C)[C@@H]1[C@H]2OC(=O)[C@@H]1[C@]1(O)C[C@H]3O[C@]34C(=O)O[C@H]2[C@]14C,0.216
14,CC(=O)[C@H]1CC[C@H]2[C@@H]3CCC4=CC(=O)CC[C@]4(C)[C@H]3C(OC(=O)CCC(=O)O)C[C@]12C (stereo partly drawn) [11alpha-HYDROXYPROGESTERONE HEMISUCCINATE],0.229

# Reprinted at random: 2 records from the list
row,SMILES,fraction of eclosed F1 progeny that are homozygous ATM8
19,Cc1c(NC(=O)c2cccnc2)c(=O)n(-c2ccccc2)n1C,0.171
3,O=C(O)CCCCCCCC(=O)O,0.129
